PubChem BioAssay AID1159584 | Peter MacCallum Cancer Centre | 2016
Test: 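Genes that CDH1-null MCF10A cells selectively depend on to survive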 (primary screen). Cells: human MCF10A breast epithelial cells, parental and CDH1-null. Knock-down reagent: siRNA against human genes. Read-out: 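ATP luminescence (CellTiter-Glo) viability per line relative to mean mock wells over all plates, and the ratio of CDH1-null to parental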. Scale: CDH1-null / parental viability ratio: higher = CDH1-null cells survive relatively better than parental.
Shown is a random part of about 18,000 reagents tested. Further read-outs or replicates are left out here. Not given: the amount of reagent, the time to read-out.

no.	target gene	CDH1-null / parental viability ratio
1	NME1	1.05
2	PRSS35	1.08
3	CHDH	0.89
4	DPRX	0.92
5	CEBPG	1.04
6	SPTSSB	0.94
7	GAS7	0.93
8	RNF138	1.04
9	DDX46	0.93
10	ING5	1.24
11	INO80C	1.3
12	USP53	1.11
13	CIDEA	0.76
14	OR2C3	0.87
15	NPRL2	1.18
16	PTPN14	1.4

2 successive entries already listed, for reference:
no.	target gene	CDH1-null / parental viability ratio
9	DDX46	0.93
10	ING5	1.24

The listing continues.
no.	target gene	CDH1-null / parental viability ratio
17	PCNA	1.08
18	ULK3	1.03
19	TRIM41	0.98
20	GPM6A	1.42
21	ICA1	1.23
22	HTRA1	1.1
23	NCR1	1.06
24	PEX39	1.38
25	OGN	1.19
26	NAP1L5	1
27	CELA3A	1.25
28	RBP1	1.2
